These are yes or no findings as the source states them, for the method shown. Some binding calls cover weakened binding; strength is not graded here.
Molecular target: CD40L (UniProt P29965)
Assay: ELISA, 0.2 µg CD40L per well, expression lysate, anti-HA-HRP, OD 450 nm compared with anti-CD40L 2.2

Chains of the proteins cited; added tags and fusions are not shown. Residues count along the entry.
UniProt P29965, residues 113-261: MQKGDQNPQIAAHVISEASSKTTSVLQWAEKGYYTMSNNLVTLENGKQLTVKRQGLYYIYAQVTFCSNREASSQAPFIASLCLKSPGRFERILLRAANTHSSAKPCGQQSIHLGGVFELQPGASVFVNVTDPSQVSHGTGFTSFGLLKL

Binder	binding
CLPSQFPCQNSSICVPPALVCDGDADCGDDSDEASCAPPGSLSLQ (designed binder) [A2F10]	binds
CAPGEFTCGNGHCLSRALRCDGDDGCLDNSDEKNCPQRTSLQ (designed binder) [A1E9]	binds
CRPNQFTCGNGHCLPRTWLCDGVPDCQDSSDETPIPCKSSVPTSLQ (designed binder) [pmA2_84]	binds
pmA2_18 (designed binder) CPADQFQCKNGSCIPRPLRCDGVEDCADGSDEGQDCGRPGPGATSAPAASLQ	binds
A5C1 (designed binder) CQSSQFRCRDNSTCLPLRLRCDGVNDCRDGSDESPALCGRPGPGATSAPAASLQ	binds

The remaining lines, values ahead:

binding	Binder
binds	CLANECTCDSGRCLPLPLVCDGVPDCEDDSDEKNCTKPTSLQ (designed binder) [pmA11_40]
binds	CARDGEFRCAMNGRCIPSSWVCDGEDDCGDGSDESQVYCGGGGSLQ (designed binder) [pmA5_79]

From patent US20050053973A1
